{"sequences": {"note": "By UniProt entry, the sequences of proteins in these tests, tags left out.", "UniProt Q9NP72": "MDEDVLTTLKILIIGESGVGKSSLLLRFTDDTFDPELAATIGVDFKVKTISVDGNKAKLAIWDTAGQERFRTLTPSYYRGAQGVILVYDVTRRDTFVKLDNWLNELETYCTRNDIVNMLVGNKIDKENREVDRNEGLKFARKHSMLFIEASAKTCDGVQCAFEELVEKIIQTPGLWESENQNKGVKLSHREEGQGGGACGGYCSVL"}, "source": "paper PMC10641524", "key": {"[1]": {"target": "T1, BioID2(Gly40Ser)-SEC22A (human) (UniProt Q96IW7)", "T1 sequence": "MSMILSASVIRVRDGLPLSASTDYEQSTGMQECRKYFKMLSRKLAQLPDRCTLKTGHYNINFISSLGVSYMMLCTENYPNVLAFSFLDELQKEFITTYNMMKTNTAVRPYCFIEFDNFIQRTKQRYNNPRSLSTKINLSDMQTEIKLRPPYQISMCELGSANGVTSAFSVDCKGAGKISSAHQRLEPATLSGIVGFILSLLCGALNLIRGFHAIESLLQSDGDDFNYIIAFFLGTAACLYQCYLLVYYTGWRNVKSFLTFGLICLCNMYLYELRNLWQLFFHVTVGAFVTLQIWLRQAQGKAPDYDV", "experiment": "proximity labelling; reciprocal BioID: BioID2(Gly40Ser)-SEC22A transiently expressed in HeLa cells (WT compared with RAB3GAP-null and RAB18-null), 50 uM biotin 6 h; streptavidin Dynabeads, label-free quantitative mass spectrometry"}, "BirA*-RAB18 [2]": {"target": "BirA*-RAB18 (UniProt Q9NP72)", "experiment": "proximity labelling; independent BioID experiment with BirA*-RAB18 in WT HeLa cells; streptavidin-purified samples read by Western blotting"}, "BirA*-RAB18 [3]": {"target": "BirA*-RAB18 (UniProt Q9NP72)", "experiment": "proximity labelling; independent BioID experiment with BirA*-RAB18 in RAB3GAP1-null HeLa cells; streptavidin-purified samples read by Western blotting"}, "BirA*-RAB18 [4]": {"target": "BirA*-RAB18 (UniProt Q9NP72)", "experiment": "proximity labelling; BioID: BirA*-RAB18 transiently expressed in WT HeLa cells (compared with RAB3GAP1-, RAB3GAP2- and TRAPPC9-null cells), 50 uM biotin 24 h; biotinylated proteins purified on streptavidin Dynabeads, label-free quantitative mass spectrometry; hits are proteins with RAB3GAP-null:WT intensity ratio <=0.5"}, "BirA*-RAB18, Q9NP72 [5]": {"target": "BirA*-RAB18, Q9NP72", "experiment": "proximity labelling; BioID: BirA*-RAB18 transiently expressed in WT HeLa cells (compared with RAB3GAP1-, RAB3GAP2- and TRAPPC9-null cells), 50 uM biotin 24 h; biotinylated proteins purified on streptavidin Dynabeads, label-free quantitative mass spectrometry; hits are proteins with RAB3GAP-null:WT intensity ratio <=0.5", "conditions": "remark: other sources report otherwise"}, "BirA*-RAB18, Q9NP72 [6]": {"target": "BirA*-RAB18, Q9NP72", "experiment": "proximity labelling; independent BioID experiment with BirA*-RAB18 in WT HeLa cells; streptavidin-purified samples read by Western blotting", "conditions": "remark: other sources report otherwise"}}, "note": "These are yes or no findings as the source states them, for the method shown. In cells and extracts the contact can be indirect. Here binding means that the protein was enriched with, or labelled near, the bait; the list need not be complete. For part of these data: A no says only that the protein was not detected with the bait."}
{"molecule": "endogenous RAB18 (from UniProt Q9NP72 1-206)", "values": [{"measurement": "binding", "setting": "[1]", "result": "binds"}]}
{"molecule": "ZW10 (protein, UniProt O43264 1-779) MASFVTEVLAHSGRLEKEDLGTRISRLTRRVEEIKGEVCNMISKKYSEFLPSMQSAQGLITQVDKLSEDIDLLKSRIESEVRRDLHVSTGEFTDLKQQLERDSVVLSLLKQLQEFSTAIEEYNCALTEKKYVTGAQRLEEAQKCLKLLKSRKCFDLKILKSLSMELTIQKQNILYHLGEEWQKLIVWKFPPSKDTSSLESYLQTELHLYTEQSHKEEKTPMPPISSVLLAFSVLGELHSKLKSFGQMLLKYILRPLASCPSLHAVIESQPNIVIIRFESIMTNLEYPSPSEVFTKIRLVLEVLQKQLLDLPLDTDLENEKTSTVPLAEMLGDMIWEDLSECLIKNCLVYSIPTNSSKLQQYEEIIQSTEEFENALKEMRFLKGDTTDLLKYARNINSHFANKKCQDVIVAARNLMTSEIHNTVKIIPDSKINVPELPTPDEDNKLEVQKVSNTQYHEVMNLEPENTLDQHSFSLPTCRISESVKKLMELAYQTLLEATTSSDQCAVQLFYSVRNIFHLFHDVVPTYHKENLQKLPQLAAIHHNNCMYIAHHLLTLGHQFRLRLAPILCDGTATFVDLVPGFRRLGTECFLAQMRAQKGELLERLSSARNFSNMDDEENYSAASKAVRQVLHQLKRLGIVWQDVLPVNIYCKAMGTLLNTAISEVIGKITALEDISTEDGDRLYSLCKTVMDEGPQVFAPLSEESKNKKYQEEVPVYVPKWMPFKELMMMLQASLQEIGDRWADGKGPLAAAFSSSEVKALIRALFQNTERRAAALAKIK", "values": [{"measurement": "binding", "setting": "BirA*-RAB18 [2]", "result": "binds"}, {"measurement": "binding", "setting": "BirA*-RAB18 [3]", "result": "no binding (only in RAB3GAP1-null cells)"}, {"measurement": "binding", "setting": "BirA*-RAB18 [4]", "result": "binds"}]}
{"molecule": "SPG20, Q8N0X7 1-666 (protein) MEQEPQNGEPAEIKIIREAYKKAFLFVNKGLNTDELGQKEEAKNYYKQGIGHLLRGISISSKESEHTGPGWESARQMQQKMKETLQNVRTRLEILEKGLATSLQNDLQEVPKLYPEFPPKDMCEKLPEPQSFSSAPQHAEVNGNTSTPSAGAVAAPASLSLPSQSCPAEAPPAYTPQAAEGHYTVSYGTDSGEFSSVGEEFYRNHSQPPPLETLGLDADELILIPNGVQIFFVNPAGEVSAPSYPGYLRIVRFLDNSLDTVLNRPPGFLQVCDWLYPLVPDRSPVLKCTAGAYMFPDTMLQAAGCFVGVVLSSELPEDDRELFEDLLRQMSDLRLQANWNRAEEENEFQIPGRTRPSSDQLKEASGTDVKQLDQGNKDVRHKGKRGKRAKDTSSEEVNLSHIVPCEPVPEEKPKELPEWSEKVAHNILSGASWVSWGLVKGAEITGKAIQKGASKLRERIQPEEKPVEVSPAVTKGLYIAKQATGGAAKVSQFLVDGVCTVANCVGKELAPHVKKHGSKLVPESLKKDKDGKSPLDGAMVVAASSVQGFSTVWQGLECAAKCIVNNVSAETVQTVRYKYGYNAGEATHHAVDSAVNVGVTAYNINNIGIKAMVKKTATQTGHTLLEDYQIVDNSQRENQEGAANVNVRGEKDEQTKEVKEAKKKDK", "values": [{"measurement": "binding", "setting": "BirA*-RAB18, Q9NP72 [5]", "result": "binds"}, {"measurement": "binding", "setting": "BirA*-RAB18, Q9NP72 [6]", "result": "binds"}]}
